{
  "source": "patent US20230190769A1",
  "about": "“E PROTEIN CHANNEL BLOCKERS AND ORF3 INHIBITORS AS ANTI-COVID-19 AGENTS” (priority 2020, published 2023)",
  "test_system": "SARS-CoV-2",
  "assay_type": "cell-based",
  "note": "Like-named read-outs stand apart in the source and are kept apart here. Some of these results come from one statement about several compounds together.",
  "data": [
    {"smiles": "CCN(CC)CCN(Cc1ccc(-c2ccc(C(F)(F)F)cc2)cc1)C(=O)Cn1c(SCc2ccc(F)cc2)nc(=O)c2c1CCC2", "note": "[Darapladib, N-(2-Diethylaminoethyl)-2-[2-[(4-fluorophenyl)methylsulfanyl]-4-oxo-6,7-dihydro-5H-cyclopenta[d]pyrimidin-1-yl]-N-[[4-[4-(trifluoromethyl)phenyl]phenyl]methyl]acetamide]", "values": [
      {"measurement": "cells survived", "setting": "sole compound at concentrations of 1 to 3, FIG. 24", "result": "≥ 60", "unit": "%"}
    ]},
    {"smiles": "Cc1ncc(NC(=O)c2ccc(CN3CCN(C)CC3)c(C(F)(F)F)c2)cc1Nc1nccc(-c2cccnc2)n1", "note": "[Flumatinib, 4-[(4-methylpiperazin-1-yl)methyl]-N-[6-methyl-5-[(4-pyridin-3-ylpyrimidin-2-yl)amino]pyridin-3-yl]-3-(trifluoromethyl)benzamide]", "values": [
      {"measurement": "cells survived", "setting": "sole compound at concentrations of 0.1 to 3, FIG. 24", "result": "≥ 60", "unit": "%"}
    ]}
  ]
}
